Library screen at single concentrations

Chains of the proteins cited; added tags and fusions are not shown.
UniProt I6X8D2, whole entry: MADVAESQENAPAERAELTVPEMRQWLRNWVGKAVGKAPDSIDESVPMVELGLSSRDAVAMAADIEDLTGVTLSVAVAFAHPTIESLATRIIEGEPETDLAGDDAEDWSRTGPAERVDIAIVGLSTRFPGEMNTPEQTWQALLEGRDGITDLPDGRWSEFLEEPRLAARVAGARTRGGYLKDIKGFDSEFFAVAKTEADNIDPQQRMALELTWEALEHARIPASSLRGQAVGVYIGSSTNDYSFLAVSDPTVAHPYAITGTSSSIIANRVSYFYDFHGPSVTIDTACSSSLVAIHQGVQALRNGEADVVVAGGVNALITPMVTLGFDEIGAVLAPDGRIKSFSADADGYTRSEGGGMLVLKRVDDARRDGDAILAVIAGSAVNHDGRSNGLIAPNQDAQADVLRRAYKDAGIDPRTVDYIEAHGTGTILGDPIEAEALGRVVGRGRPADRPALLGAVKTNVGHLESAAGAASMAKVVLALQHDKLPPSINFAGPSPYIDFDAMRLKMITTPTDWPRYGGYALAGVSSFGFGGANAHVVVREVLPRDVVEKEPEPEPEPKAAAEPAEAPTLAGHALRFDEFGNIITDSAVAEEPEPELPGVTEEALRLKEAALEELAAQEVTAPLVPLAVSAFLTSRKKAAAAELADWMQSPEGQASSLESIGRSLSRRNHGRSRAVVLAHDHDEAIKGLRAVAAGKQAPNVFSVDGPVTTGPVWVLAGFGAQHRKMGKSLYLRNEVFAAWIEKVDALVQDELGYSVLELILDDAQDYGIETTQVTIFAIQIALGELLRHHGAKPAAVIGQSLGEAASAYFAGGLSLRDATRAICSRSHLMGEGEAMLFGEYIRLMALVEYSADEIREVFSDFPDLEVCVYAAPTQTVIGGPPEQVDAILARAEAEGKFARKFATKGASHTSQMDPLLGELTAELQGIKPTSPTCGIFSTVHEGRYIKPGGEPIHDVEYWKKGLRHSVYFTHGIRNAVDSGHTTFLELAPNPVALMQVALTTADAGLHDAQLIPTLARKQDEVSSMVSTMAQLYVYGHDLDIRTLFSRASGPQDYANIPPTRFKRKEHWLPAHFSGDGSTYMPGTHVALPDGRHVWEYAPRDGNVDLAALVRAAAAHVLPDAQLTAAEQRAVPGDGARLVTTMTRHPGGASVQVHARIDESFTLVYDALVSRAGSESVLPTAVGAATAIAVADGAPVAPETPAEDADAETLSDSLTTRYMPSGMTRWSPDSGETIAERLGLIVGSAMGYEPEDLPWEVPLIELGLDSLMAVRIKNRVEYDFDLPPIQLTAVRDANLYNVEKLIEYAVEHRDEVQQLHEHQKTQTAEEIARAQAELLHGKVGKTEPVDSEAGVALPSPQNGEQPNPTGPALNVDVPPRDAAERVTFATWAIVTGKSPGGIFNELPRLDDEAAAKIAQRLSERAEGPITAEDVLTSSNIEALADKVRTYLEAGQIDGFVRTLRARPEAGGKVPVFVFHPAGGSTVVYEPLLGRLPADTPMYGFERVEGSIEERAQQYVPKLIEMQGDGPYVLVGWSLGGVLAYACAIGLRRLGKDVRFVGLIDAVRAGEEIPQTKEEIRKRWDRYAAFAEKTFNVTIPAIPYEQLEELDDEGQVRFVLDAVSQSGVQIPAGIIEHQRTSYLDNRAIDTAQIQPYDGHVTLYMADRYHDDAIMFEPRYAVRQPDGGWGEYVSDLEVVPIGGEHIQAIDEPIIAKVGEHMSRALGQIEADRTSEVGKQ

Measurements from “University of Dundee, Small-Polar-MMV Screening Library” (2021), ChEMBL document CHEMBL3988442.

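Polyketide synthase Pks13, Mycobacterium tuberculosis (UniProt I6X8D2). Enzyme assay of the thioesterase domain of polyketide synthase 13; the read-out is not stated. Tested at 30 µM. The record gives no direction; the compounds picked for IC50 retests had high values, so higher reads as stronger inhibition. Size under these conditions: about 67,000 compounds, about 300 of them at 50% or above in at least one test.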

The filed quantity is “Percent Effect” (%). The controls that fix the scale are not given in the record; negative values are as filed. This is an unselected part of the compounds tested.

| structure | effect |
|---|---|
| `Cn1c(CN2CCC(O)CC2)nnc1C1CCCN(C(=O)C2CNC2)C1` (centres undefined) | -13.07% |
| `CCn1cc(N2Cc3nc(N4CCN(C)CC4)ncc3C2=O)cn1` | -27.7% |
| `COc1ccc(C(=O)NC2CC2)c(OC2CCN(CCCSC)CC2)c1` | -30% |
| `Cc1ncsc1CN1CCn2nc(CCC(=O)N3CCCC3)cc2C1` | -3.799% |
| `O=C(c1coc(COc2cccc3cnccc23)n1)N1CCSCC1` | -29.83% |
| `O=C([C@H]1C[C@H]2OCC[C@H]2N(Cc2cccnc2)C1)N1CCCCO1` | -4.042% |
| `CC(C)(C)OC(=O)NC(C)(C)c1noc(CSc2nncs2)n1` | 6.601% |
| `CN(C)CCN1CCOCC2(CCCN(C(=O)c3ccccn3)C2)C1` (centres undefined) | 6.147% |
| `COc1cccc(-c2csc(Cn3ccc(=O)[nH]c3=O)n2)c1` | -3.685% |
| `Cc1nn(C)cc1CN1CCCCCC1c1ccccc1Cl` (centres undefined) | 3.56% |
| `Cc1ncncc1C(=O)N1CCCC(n2ccnc2C)C1` (centres undefined) | -23.87% |
| `Cc1nc(C)c(CNC(=O)NC(c2nnc3n2CCC3)C(C)C)s1` (centres undefined) | -13.09% |
| `COC(=O)CCC(=O)NCc1cccnc1N1CCc2ccccc2C1` | -28.16% |
| `CCN(CC)Cc1cn2c(n1)CN(C1CCOC1)CC2` (centres undefined) | -15.92% |
| `CC(C)(C)c1noc(CCCC(=O)N2CCNC(=O)C2)n1` | -19.07% |
| `CCCc1nnc(N2CCC(N3CCCC3)CC2)o1` | 5.239% |
| `Cc1cncnc1C1CCN(CC(N)=O)CC1` | -8.219% |
| `O=C(NCc1cc[nH]n1)N1CCC(Oc2ccccc2Cl)CC1` | -5.437% |
| `CCCNC(=O)CN1CCC(C(=O)Nc2cnn(CC)c2)CC1` | 13.76% |
| `CCSc1ccc(C(=O)NCCc2nnc(-c3ccco3)[nH]2)cn1` | -5.291% |
| `c1cnc(N2CCC3(COCCN(CC4CCOCC4)C3)C2)nc1` (centres undefined) | -14.58% |
| `CN1CCCNC(=O)C12CCN(C(=O)c1ccc3[nH]cnc3c1)CC2` | -12.62% |
| `CN(CC1COc2ccccc2O1)C(=O)NCCCn1cncn1` (centres undefined) | -3.953% |
| `COc1cccc2c1OCC(C(=O)NCCc1nnc(N)s1)C2` (centres undefined) | -11.43% |
| `Cc1ccoc1C(=O)N1CCNCC1C(=O)NCc1ccncc1` (centres undefined) | 8.319% |
| `CN1CCc2c(C#N)c(NCc3ccccc3)n3cnnc3c2C1` | 4.149% |
| `CNC(=O)[C@H]1C[C@@H]2CN(C(=O)c3ccco3)C[C@@H]2N1S(C)(=O)=O` | -4.109% |
| `O=C(Cc1ccc(Cl)cc1)N1CCC(O)(C(F)(F)F)C1` (centres undefined) | 4.188% |
| `CC(C)c1nc2n(n1)CC(Nc1ncnc3c1CCC3)CC2` (centres undefined) | -38.65% |
| `CCN1C[C@@H]2CN(c3cc(OC)ncn3)CCC[C@]2(C(=O)O)C1` | 0.9098% |
| `Cc1cc(C2CCCN2C(=O)CN2CCc3ccccc32)on1` (centres undefined) | 6.748% |
| `NC(=O)CN(Cc1ccc(Br)cc1)C(=O)c1cccnc1` | -9.513% |
| `O=C(Nc1cccnc1)[C@@H]1C[C@H]2OCC[C@H]2N(Cc2nccs2)C1` | -10.34% |
| `Cc1cc(C)n(C2CCCN(C(=O)c3cc(C(N)=O)cs3)C2)n1` (centres undefined) | -14.32% |
| `O=c1cc(N2CCOCC2)cnn1CCc1ccc(F)cc1` | -11.31% |
| `CCn1nc(C)c(-c2cncn2CCN(C)C2CCCC2)c1C` | -9.918% |
| `Cc1ncsc1-c1nnc(C2CCN(Cc3ccccc3Cl)CC2)o1` | -2.019% |
| `CCN1CC(O)CN(C(=O)c2ccc(SC)cc2)CC1=O` (centres undefined) | 4.023% |
| `Cc1nc(Nc2ccc(Cl)cn2)sc1C(=O)NC(C)C` | -4.37% |
| `Cc1nc(CN2CCOC3(CCCN(c4nccs4)C3)C2)cs1` (centres undefined) | -4.198% |
| `COc1c(CNCc2ccc(Cn3ccnc3)cc2)c(C)nn1C` | -9.35% |
| `O=C1N(c2cccnc2)CCC12CCCN(Cc1ccco1)C2` (centres undefined) | -27.5% |
| `COC(=O)c1ccc(S(=O)(=O)NCC(O)c2sccc2C)cc1` (centres undefined) | -36.13% |
| `O=C(c1cscn1)N1CCc2ncnc(-c3ccncc3)c2CC1` | -6.513% |
| `Cc1nc(-c2cccc(N3CCC(N4CCCC4)CC3)c2)cs1` | -4.926% |
| `Cc1ccc(C(=O)N(C)Cc2csc(Br)c2)c(=O)[nH]1` | -4.022% |
| `O=C(C1SCCc2sccc21)N1CCCCC1` (centres undefined) | -14.24% |
| `Cc1nc(N2C[C@H]3CC[C@@H](C2)N3)nc2cc(S(C)(=O)=O)ccc12` | -9.991% |
| `O=C(c1cscn1)N1C[C@@H](Oc2cccnc2)[C@H]2OCCC[C@H]21` | 29.52% |
| `O=C(COCC(=O)N(c1ccccc1)c1ccccc1)N1CCCCC1` | 23.77% |
| `O=C1CC(c2cccc(O)c2)c2sc(C(=O)O)c(-c3ccccc3)c2N1` (centres undefined) | 6.413% |
| `O=C(NCc1nc(C2CC2)no1)N1CCOC(c2ccccc2F)C1` (centres undefined) | -28.97% |
| `CC(C(=O)O)n1nc(C(F)(F)F)c(Br)c1C1CC1` (centres undefined) | -19.31% |
| `Cc1cn2c(n1)CCC(NC(=O)CNS(C)(=O)=O)C2` (centres undefined) | 16.54% |
| `COc1ncccc1CNC(=O)NC1CCCOc2ccccc21` (centres undefined) | 1.455% |
| `CCN(CC)Cc1ccc(C(=O)N2CCN(CC(C)O)CC2)cc1` (centres undefined) | -1.538% |
| `COc1cc(F)cc(NC(=O)NCc2cccc(N(C)C)n2)c1` | -22.6% |
| `CCS(=O)(=O)N1C[C@H]2CC[C@@]3(N=C(C)N(CC(C)C)C3=O)[C@H]2C1` | -10.25% |
| `CCn1cnnc1CNC(=O)N1CCOCC1` | -7.757% |
| `Cc1nn(C)c2ncc(NC(=O)N(C)Cc3cnn(C)c3)cc12` | -33.18% |
| `CN1CCCc2sc(C(=O)NC3CC3)nc21` | 6.026% |
| `CC(=O)c1cccc(NC(=O)N(CC(F)F)C2CC2)c1` | -12.09% |
| `O=C([C@@H]1CCO[C@@H]2CCN(Cc3cccnc3)C[C@H]21)N1CCCCO1` | -23.49% |
| `O=C(CN1CCCC1Cn1cncn1)Nc1cccnc1` (centres undefined) | 1.263% |
| `N[C@@H]1c2ccccc2C2(CCN(c3ncccc3C(F)(F)F)CC2)[C@H]1O` | 23.91% |
| `O=C(CCc1nccs1)N1CCCC(n2ccnc2)C1` (centres undefined) | -28.35% |
| `Cc1nc(CN2CCCC(N(C)CCCc3ccccc3)C2)no1` (centres undefined) | -12.08% |
| `Cc1cc(-c2ccccc2C(=O)O)nc(C2CCCN(C)C2)n1` (centres undefined) | -7.412% |
| `CN(Cc1cccc(Cl)c1)Cc1nnsc1Cl` | 11.37% |
| `CS(=O)(=O)N1CCCC1c1cccc(Nc2nccs2)n1` (centres undefined) | -1.434% |
| `c1ccc(N2CCCC3(CCN(Cc4ccsc4)C3)C2)nc1` (centres undefined) | -13.19% |
| `CCOC(=O)N1CCC2(CCCN(C3CCOCC3)C2=O)C1` (centres undefined) | -6.11% |
| `CC(c1cc(F)ccc1F)N(C)C(=O)NCc1ccnc(N(C)C)c1` (centres undefined) | -2.372% |
| `Fc1ccc(-c2ccc(CNC3CCc4ncnn4C3)o2)cc1` (centres undefined) | -14.88% |
| `Cn1ncc2c1C(COCC1CC1)CN(C(=O)Cc1ccsc1)C2` (centres undefined) | -37.64% |
| `O=C(NCCN1CCCCCC1)c1n[nH]c(=O)c2ccccc12` | -16.33% |
| `CN1CCC(Nc2ccc(Cl)cc2OCC(F)(F)F)C1=O` (centres undefined) | -34.48% |
| `CC(c1nc(-c2ccccc2)no1)N1CCc2c(ncn2C2CC2)C1` (centres undefined) | -26.09% |
| `Cc1ccc(F)cc1S(=O)(=O)Nc1ccc2c(C(=O)O)c[nH]c2c1` | -2.896% |
| `CCn1cc(CN2CCCN(C(=O)c3ccc(C)nc3)CC2)cn1` | -24.73% |
| `Cc1cc(-c2cc(N)c(=O)n(CC(=O)NCC3CCCCC3)n2)c(C)o1` | -16.45% |
| `CS(=O)(=O)NCC1CCN(C(=O)Oc2ccccc2)CC1` | 35.26% |
| `CCc1ccc(C(C)NC(=O)CCc2nc(-c3nnc[nH]3)no2)cc1` (centres undefined) | 12.28% |
| `Cc1nc(C)n(CC2CCCCN2CCC(=O)Nc2cc(C)on2)n1` (centres undefined) | -7.97% |
| `Cc1cc(C)c2nc(CN[C@H]3CCCNC3)cc(O)c2c1` | -9.105% |
| `COc1cc(F)c(C(=O)NCc2ccon2)c(F)c1` | 3.06% |
| `O=C(CNC(=O)c1cnccn1)Nc1ncc[nH]1` | -25.03% |
| `CCN1CCC2(CN(C(=O)N(C)C)CC23CCNCC3)C1=O` (centres undefined) | -22.94% |
| `COc1ccccc1OC1CN(C(=O)C(c2ccccc2F)N(C)C)C1` (centres undefined) | -36.75% |
| `CC(C)(NS(C)(=O)=O)c1nc(-c2ccc(F)cc2Cl)no1` | 2.695% |
| `Cc1cc(C(=O)N2CCCC3(CN(C)C(=O)O3)C2)c2ccc(F)cc2n1` (centres undefined) | -2.276% |
| `CC[C@@H]1N(Cc2ccc(C)o2)CCC[C@]12CCC(=O)N2CCOC` | -24.56% |
| `O=C(Cc1ccccc1)N1CCC2(CC1)CN(c1ncccn1)CCO2` | -2.965% |
| `N#Cc1cccnc1NCCNC(=O)NCCSC(F)(F)F` | 12.1% |
| `Cc1noc(CN2CCN(C(=O)c3ccccn3)CC2)n1` | -21.87% |

Some entries from above, unchanged:

structure,effect
O=C(NCCN1CCCCCC1)c1n[nH]c(=O)c2ccccc12,-16.33%
CC[C@@H]1N(Cc2ccc(C)o2)CCC[C@]12CCC(=O)N2CCOC,-24.56%
CN1CCCNC(=O)C12CCN(C(=O)c1ccc3[nH]cnc3c1)CC2,-12.62%
COc1cc(F)c(C(=O)NCc2ccon2)c(F)c1,3.06%
CCSc1ccc(C(=O)NCCc2nnc(-c3ccco3)[nH]2)cn1,-5.291%
O=C(c1coc(COc2cccc3cnccc23)n1)N1CCSCC1,-29.83%